Laboratory results reported in patent US20220226267A1.
Results are given in words; binding and its absence hold for the method and conditions named. In cells and extracts the contact can be indirect. Some binding calls cover weakened binding; strength is not graded here.

By UniProt entry, the sequences of proteins in these tests, tags left out.
UniProt P31749: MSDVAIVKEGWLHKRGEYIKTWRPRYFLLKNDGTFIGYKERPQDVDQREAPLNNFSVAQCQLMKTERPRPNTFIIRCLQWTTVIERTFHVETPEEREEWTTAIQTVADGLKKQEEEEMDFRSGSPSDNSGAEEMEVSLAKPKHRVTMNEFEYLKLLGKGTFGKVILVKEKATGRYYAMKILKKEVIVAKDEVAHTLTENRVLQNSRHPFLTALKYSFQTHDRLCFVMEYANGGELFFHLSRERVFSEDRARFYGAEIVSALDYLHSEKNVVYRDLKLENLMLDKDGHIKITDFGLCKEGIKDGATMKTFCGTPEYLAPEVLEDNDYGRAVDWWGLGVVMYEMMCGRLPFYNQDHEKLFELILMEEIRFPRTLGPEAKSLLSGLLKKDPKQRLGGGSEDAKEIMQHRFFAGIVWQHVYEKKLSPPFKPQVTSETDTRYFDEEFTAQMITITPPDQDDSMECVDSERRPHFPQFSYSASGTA
UniProt P31750: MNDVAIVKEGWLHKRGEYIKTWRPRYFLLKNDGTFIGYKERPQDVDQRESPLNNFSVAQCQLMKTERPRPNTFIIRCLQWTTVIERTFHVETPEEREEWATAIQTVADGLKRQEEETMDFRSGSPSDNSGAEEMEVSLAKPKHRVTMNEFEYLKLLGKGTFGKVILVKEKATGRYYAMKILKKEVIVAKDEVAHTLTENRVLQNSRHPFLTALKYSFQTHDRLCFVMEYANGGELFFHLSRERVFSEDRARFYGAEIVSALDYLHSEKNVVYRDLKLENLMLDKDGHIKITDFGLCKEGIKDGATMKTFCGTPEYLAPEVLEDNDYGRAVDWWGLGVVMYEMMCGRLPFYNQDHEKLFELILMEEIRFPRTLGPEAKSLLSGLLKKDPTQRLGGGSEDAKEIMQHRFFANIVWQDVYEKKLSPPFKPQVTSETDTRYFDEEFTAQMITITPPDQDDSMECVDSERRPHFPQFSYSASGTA

Key:
[1] = target: AKT (protein kinase B), endogenous in HaCaT cells (UniProt P31749); assay: co-immunoprecipitation from HaCaT cells stimulated with TNF-α and IL-17A
[2] = target: AKT (protein kinase B), endogenous in HaCaT cells (UniProt P31749); assay: co-immunoprecipitation from HaCaT cell lysate with CaMK4 antibody, Western blot with AKT antibody
[3] = target: AKT (protein kinase B), endogenous in mouse bone marrow-derived macrophages (BMDMs) (mouse) (UniProt P31750); assay: co-immunoprecipitation from BMDMs

B1: Calcium/calmodulin-dependent protein kinase IV (CaMK4), endogenous in HaCaT cells (enzyme, UniProt Q16566 1-473, looked up)
chain: MLKVTVPSCSASSCSSVTASAAPGTASLVPDYWIDGSNRDALSDFFEVESELGRGATSIVYRCKQKGTQKPYALKVLKKTVDKKIVRTEIGVLLRLSHPNIIKLKEIFETPTEISLVLELVTGGELFDRIVEKGYYSERDAADAVKQILEAVAYLHENGIVHRDLKPENLLYATPAPDAPLKIADFGLSKIVEHQVLMKTVCGTPGYCAPEILRGCAYGPEVDMWSVGIITYILLCGFEPFYDERGDQFMFRRILNCEYYFISPWWDEVSLNAKDLVRKLIVLDPKKRLTTFQALQHPWVTGKAANFVHMDTAQKKLQEFNARRKLKAAVKAVVASSRLGSASSSHGSIQESHKASRDPSPIQDGNEDMKAIPEGEKIQGDGAQAAVKGAQAELMKVQALEKVKGADINAEEAPKMVPKAVEDGIKVADLELEEGLAEEKLKTVEEAAAPREGQGSSAVGFEVPQQDVILPEY
For B1, the binding [1] was “binds” and the binding [2] was “binds”.

B2: Calcium/calmodulin-dependent protein kinase IV (CaMK4), endogenous in mouse bone marrow-derived macrophages (BMDMs) (enzyme, UniProt P08414 1-469, looked up)
chain: MLKVTVPSCPSSPCSSVTASTENLVPDYWIDGSNRDPLGDFFEVESELGRGATSIVYRCKQKGTQKPYALKVLKKTVDKKIVRTEIGVLLRLSHPNIIKLKEIFETPTEISLVLELVTGGELFDRIVEKGYYSERDARDAVKQILEAVAYLHENGIVHRDLKPENLLYATPAPDAPLKIADFGLSKIVEHQVLMKTVCGTPGYCAPEILRGCAYGPEVDMWSVGIITYILLCGFEPFYDERGDQFMFRRILNCEYYFISPWWDEVSLNAKDLVKKLIVLDPKKRLTTFQALQHPWVTGKAANFVHMDTAQKKLQEFNARRKLKAAVKAVVASSRLGSASSSHTSIQENHKASSDPPSTQDAKDSTDLLGKKMQEEDQEEDQVEAEASADEMRKLQSEEVEKDAGVKEEETSSMVPQDPEDELETDDPEMKRDSEEKLKSVEEEMDPMTEEEAPDAGLGVPQQDAIQPEY
B2 was tested, and the binding [3] was “binds”.
